# Results are given in words; binding and its absence hold for the method and conditions named. In cells and extracts the contact can be indirect. Here binding means that the protein was enriched with, or labelled near, the bait; the list need not be complete.
# T1: 5'-3' exoribonuclease-2 (XRN-2) (C. elegans (endogenous in worm lysate)) (UniProt Q9U299)
# T1 sequence: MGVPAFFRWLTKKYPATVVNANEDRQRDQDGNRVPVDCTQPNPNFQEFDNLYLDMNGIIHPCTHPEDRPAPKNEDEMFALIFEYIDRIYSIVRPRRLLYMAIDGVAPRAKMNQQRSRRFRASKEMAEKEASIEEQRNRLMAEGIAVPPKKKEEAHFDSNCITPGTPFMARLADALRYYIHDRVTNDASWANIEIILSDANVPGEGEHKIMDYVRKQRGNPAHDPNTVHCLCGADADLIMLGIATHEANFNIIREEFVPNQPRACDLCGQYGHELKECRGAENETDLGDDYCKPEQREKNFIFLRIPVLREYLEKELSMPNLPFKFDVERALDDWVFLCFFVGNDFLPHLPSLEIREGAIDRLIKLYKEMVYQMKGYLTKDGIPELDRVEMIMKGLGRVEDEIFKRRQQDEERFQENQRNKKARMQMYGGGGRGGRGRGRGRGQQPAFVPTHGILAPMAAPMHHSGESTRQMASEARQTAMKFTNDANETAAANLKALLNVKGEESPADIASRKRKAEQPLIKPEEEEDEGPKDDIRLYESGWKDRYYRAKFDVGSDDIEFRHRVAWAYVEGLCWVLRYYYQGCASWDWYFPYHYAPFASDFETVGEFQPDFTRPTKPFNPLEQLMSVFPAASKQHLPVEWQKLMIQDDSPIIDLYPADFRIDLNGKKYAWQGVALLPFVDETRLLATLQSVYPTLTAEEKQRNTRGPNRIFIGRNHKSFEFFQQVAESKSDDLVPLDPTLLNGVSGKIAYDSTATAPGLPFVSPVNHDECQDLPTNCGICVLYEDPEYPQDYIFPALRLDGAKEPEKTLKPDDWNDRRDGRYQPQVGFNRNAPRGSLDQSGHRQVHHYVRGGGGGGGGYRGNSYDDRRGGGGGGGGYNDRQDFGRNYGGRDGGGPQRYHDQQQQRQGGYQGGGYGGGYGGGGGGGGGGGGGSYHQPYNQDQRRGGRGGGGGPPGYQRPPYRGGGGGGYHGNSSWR
# Target: T1, 5'-3' exoribonuclease-2 (XRN-2) (C. elegans (endogenous in worm lysate))
# Assay: affinity purification with mass spectrometry
row,binding,Molecule
1,binds,miRNasome-1.4 (B0024.11) (C. elegans (endogenous in worm lysate))
2,binds,NOL-58 (C. elegans (endogenous in worm lysate))
3,binds,"partner of XRN two-1 (PAXT-1) (natural protein, C. elegans (endogenous in worm lysate), UniProt Q21738 1-335, looked up) MGKLEDVEAEKKLWESDDAWELRKAFMLAHYDDYPKIQLQCLSQLFINVTLLGCEYSQTLMQKIRTMGAGIAANKDRTKTGSYVKASAAKKRQAVKTSDLEGASDESKKVKMEKSPSPVARESFDERLGKLKASLAMTPHHLTGEQMMKTATNSCLMKWHVNKINQKIEITIDRYVAFRHTFSQYCVDPRDCAINTLIESILSCDAAVHEESYEIRFDGVPVDECYAKSVTRRLAKIKSAVSNGAHTVKGLTTYLDAVNMSMIQNTQKLEGWSQQLDLVTADLLLSSRVLSSTECTKPAMATIANQMSEDVCQLILNDKINVINSMKSHSSLAFQ"

# Source: doi:10.1101/2020.12.28.424526 (bioRxiv, 2020)
